According to patent US20030152571A1:
Results are given in words; binding and its absence hold for the method and conditions named. Binding calls can cover weak binding; strength is not graded here. Values belong to the binder of their own block, whether it stands above or below them.

What was measured:
[1] = target: human vitronectin receptor αvβ3 purified from human placenta (human); experiment: ORIGEN electrochemiluminescence binding assay on αvβ3
[2] = target: human vitronectin receptor αvβ3 purified from human placenta (human); experiment: solid phase ELISA, purified human placenta αvβ3 on plate
[3] = target: human vitronectin receptor αvβ3 purified from human placenta (human); experiment: ORIGEN; αvβ3-biotin preincubated with unlabeled LM609 or D12, then Tag-LM609 (FIG. 6)
[4] = target: human vitronectin receptor αvβ3 purified from human placenta (human); experiment: ORIGEN binding to αvβ3 (FIG. 2)
[5] = target: human vitronectin receptor αvβ3 purified from human placenta (human); experiment: ORIGEN competition: competing antibody against 1 ug/ml LM609 for 1 ug/ml αvβ3
[6] = target: human vitronectin receptor αvβ3 purified from human placenta (human); experiment: ORIGEN competition (FIG. 7)
[7] = target: human vitronectin receptor αvβ3 purified from human placenta (human); experiment: ELISA and BIAcore, COS cell supernatants

- binding [1]: binds
- binding [2]: binds
- binding [3]: binds
- binding [4]: binds
- binding [5]: binds
- binding [6]: binds
B1: murine monoclonal antibody D12 (antibody, V domains shown)
VH: EIQLQQSGPEVVKPGASVKVSCKASGYAFTSYNMYWVKQSHGKSLEWIGYIDPYNGDTFYNQKFKGKATLTVDKSSSTAYMHLNSLTSEDSAVFYCARQNYGSFAYWGQGTLVTVSA
VL: DIVLTQSPATLSVTPGDSVSLSCRASQSISNHLHWYQQRSHESPRLLIKYASQSISGIPSRFRGSGSGTDFTLNINILETEDFGMYFCQQSNSWPFTFGSGTNLEIKR

- binding [7]: binds
B2: humanized D12 antibody HZ-D12 (IgG1) (antibody, V domains shown)
VH: QVQLVQSGAEVKKPGASVKVSCKASGYAFTSYNMYWVRQAPGQGLEWIGYIDPYNGDTFYNQKFKGKATLTVDKSTSTAYMELSSLRSEDTAVYYCARQNYGSFAYWGQGTLVTVSS
VL: DIVLTQSPGTLSLSPGERATLSCRASQSISNHLHWYQQKPGQAPRLLIKYASQSISGIPSRFSGSGSGTDFTLTISRLEPEDFAVYYCQQSNSWPFTFGQGTKVEIK
